Measured values: article PMC9788671
Results are given in words; binding and its absence hold for the method and conditions named. In cells and extracts the contact can be indirect. Here binding means that the protein was enriched with, or labelled near, the bait; the list need not be complete.

Chains of the proteins cited; added tags and fusions are not shown.
UniProt Q9NZV8: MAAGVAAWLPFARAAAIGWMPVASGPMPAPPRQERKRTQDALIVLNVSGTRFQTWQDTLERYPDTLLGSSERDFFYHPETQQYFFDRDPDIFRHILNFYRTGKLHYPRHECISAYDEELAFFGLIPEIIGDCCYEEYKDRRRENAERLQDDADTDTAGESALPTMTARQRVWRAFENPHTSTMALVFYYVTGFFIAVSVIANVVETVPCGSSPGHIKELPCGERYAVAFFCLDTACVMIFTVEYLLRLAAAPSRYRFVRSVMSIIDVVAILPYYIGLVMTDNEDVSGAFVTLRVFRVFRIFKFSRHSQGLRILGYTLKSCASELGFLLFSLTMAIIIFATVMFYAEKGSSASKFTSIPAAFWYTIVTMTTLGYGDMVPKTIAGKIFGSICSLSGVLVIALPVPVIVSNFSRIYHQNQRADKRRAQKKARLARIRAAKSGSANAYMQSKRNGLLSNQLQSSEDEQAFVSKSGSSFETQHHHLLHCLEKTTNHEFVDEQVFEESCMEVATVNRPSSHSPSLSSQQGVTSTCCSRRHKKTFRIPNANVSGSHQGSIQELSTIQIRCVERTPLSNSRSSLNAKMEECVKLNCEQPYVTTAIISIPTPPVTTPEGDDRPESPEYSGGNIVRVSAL

B1: Rasgrf2 (protein, UniProt Q99JE4 1-1190)
chain: MQKSVRYNEGHALYLAFLARKEGTKRGFLSKKAAEASRWHEKWFALYQNVLFYFEGEQSGRPAGMYLLEGCSCERTPAPPRTNAGPAGARDALDKQYYFTVLFGHEGQKPLELRCEEEQAGKEWMEAIHQASYADILIEREVLMQKYIHLVQIVETEKIAANQLRHQLEDQDTEIERLKSEIVALNKTKERMRPYHTHQEEEDPDIKKIKKVQSFMRGWLCRRKWKTIVQDYICSPHAESMRKRNQIVFTMVEAESEYVHQLYILVNGFLRPLRMAASSKKPPISHDDVSSIFLNSETIMFLHEIFHQGLKARLANWPTLVLADLFDILLPMLNIYQEFVRNHQYSLQVLANCKQNRDFDKLLKQYEGNPACEGRMLETFLTYPMFQIPRYIITLHELLAHTPHEHVERKSLEFAKSKLEELSRVMHDEVSDTENIRKNLAIERMIVEGCDILLDTSQTFIRQGSLIQVPSVERGKLSKVRLGSLSLKKEGERQCFLFTKHFLICTRSSGGKLHLLKTGGVLSLIQCTLIEEPDTSDDDTKGPGHMFGHLDFKIVVEPPDAAPFTVVLLAPSRQEKAAWMSDISQCVDNIRCNGLMTIVFEENSKVTVPHMIKSDARLHKDDTDICFSKTLNSCKVPQIRYASVERLLERLTDLRFLSIDFLNTFLHTYRIFTTAAVVLGKLSDIYKRPFTSIPVRSLELFFATSQNNREHLVDGKSPRLCRKFSSPPPLAVSRTSSPVRARKLSLTSSLNSRIGALDLTTSSSSSSPTTTVHSPAASPPPHTAVPESAPADRAGDSTDMSPCRSPSTTPRHLRYRQPGGQVADSTHCAVSPASAFAIATAAAGHGSPPGFNNERTCDKEFIIRRTATNRVLNVLRHWVSKHSQDFELNNELKMNVLNLLEEVLRDPDLLPQERKATANILRALSQDDQDDIHLKLEDIIQMTDCPKAECFETLSAMELAEQITLLDHIVFRSIPYEEFLGQGWMKLDKNERTPYIMKTSQHFNEMSNLVASQIMNYADISSRANAIEKWVAVADICRCLHNYNGVLEITSALNRSAIYRLKKTWTKVSKQTKALMDKLQKTVSSEGRFKNLRETLKNCNPPAVPYLGMYLTDLAFIEEGTPNFTEEGLVNFSKMRMISHIIREIRQFQQTAYRIDQQPKVIQYLLDKALVIDEDTLYELSLKIEPRLPA
B2: Nup153 (protein, UniProt P49791 1-1468)
chain: MASGAGGIGGGGGGGKIRTRRCHQGPVKPYQQGRPQHQGILSRVTESVKNIVPGWLQRYFNKSENACSCSVNADEVPRWPENREDEREIYVDENTNTDDGRTTPEPTGSNTEEPSTTSTASNYPDVLTRPSLHRSHLNFSVLESPALHCQPSTSSAFPIGSSGFSLVKEIKDSTSQHDDDNISTTSGFSSRASEKDIAVSKNTSLPPLWSPEAERSHSLSQHTAISSKKPAFNLSAFGTLSTSLGNSSILKTSQLGDSPFYPGKTTYGGAAAAVRQNKVRSTPYQAPVRRQMKAKQLNAQSYGVTSSTARRILQSLEKMSSPLADAKRIPSAVSSPLNSPLDRSGIDSTVFQAKKEKVDSQYPPVQRLMTPKPVSIATNRTVYFKPSLTPSGDLRKTNQRIDKKNSTVDEKNISRQNREQESGFSYPNFSIPAANGLSSGVGGGGGKMRRERTTHFVASKPSEEEEVEVPLLPQISLPISSSSLPTFNFSSPAISAASSSSVSPSQPLSNKVQMTSLGSTGNPVFTFSSPIVKSTQADVLPPASIGFTFSVPLAKTELSGPNSSSETVLSSSVTAQDNTVVNSSSSKKRSAPCEDPFTPAKILREGSVLDILKTPGFMSPKVDSPALQPTTTSSIVYTRPAISTFSSSGVEFGESLKAGSSWQCDTCLLQNKVTDNKCIACQAAKLPLKETAKQTGIGTPSKSDKPASTSGTGFGDKFKPAIGTWDCDTCLVQNKPEAVKCVACETPKPGTGVKRALPLTVASESPVTASSSTTVTTGTLGFGDKFKRPVGSWECPVCCVSNKAEDSRCVSCTSEKPGLVSASSSNSVPVSLPSGGCLGLDKFKKPEGSWDCEVCLVQNKADSTKCIACESAKPGTKSEFKGFGTSSSLNPAPSAFKFGIPSSSSGLSQTFTSTGNFKFGDQGGFKLGTSSDSGSTNTMNTNFKFPKPTGDFKFGVLPDSKPEEIKNDSKNDNFQFGPSSGLSNPASSAPFQFGVSTLGQQEKKEELPQSSSAGFSFGAGVANPSSAAIDTTVTSENKSGFNFGTIDTKSVSVTPFTYKTTEAKKEDASATKGGFTFGKVDSAALSSPSMFVLGRTEEKQQEPVTSTSLVFGKKADNEEPKCQPVFSFGNSEQTKDESSSKPTFSFSVAKPSVKESDQLAKATFAFGNQTNTTTDQGAAKPAFSFLNSSSSSSSTPATSSSASIFGSSTSSSSPPVAAFVFGQASNPVSSSAFGNSAESSTSQPLLFPQDGKPATTSSTASAAPPFVFGTGASSNSTVSSGFTFGATTTSSSSGSFFVFGTGHSAPSASPAFGANQTPTFGQSQGASQPNPPSFGSISSSTALFSAGSQPVPPPTFGTVSSSSQPPVFGQQPSQSAFGSGTANASSVFQFGSSTTNFNFTNNNPSGVFTFGASPSTPAAAAQPSGSGGFSFSQSPASFTVGSNGKNMFSSSGTSVSGRKIKTAVRRKK
B3: Thrap3 (protein, UniProt Q5M7V8 1-951)
chain: MSKTNKSKSGSRSSRSRSASRSRSRSFSKSRSRSRSVSRSRKRRLSSRSRSRSYSPAHNRERNHPRVYQNRDFRGHNRGYRRPYYFRGRNRGFYPWGQYNRGGYGNYRSNWQNYRQAYSPRRGRSRSRSPKRRSPSPRSRSHSRNSDKSSSDRSRRSSSSRSSSNHSRVESSKRKSTKEKKSSSKDSRPSQAAGDNQGDEAKEQTFSGGTSQDIKGSESSKPWPDATTYGTGSASRASVSDLSPRERSPALKSPLQSVVVRRRSPRPSPVPKPSPPLSNASQMGSSMSGGAGYQSGAHQGPFDHGSGSLSPSKKSPVGKSPPATGSAYGSSQKEESAASGGAAYTKRYLEEQKTENGKDKEQKQTNTDKEKLKEKGGFSDADVKMKSDPFAPKTDTEKPFRGSQSPKRYKLRDDFEKKMADFHKEEMDEQDKDKCKGRKEPEFDDEPKFISKVIAGASKNQEEEKSGKWESLHAGKEKQRKAEELEEEPFTERSRKEERGGSKRSESGHRGFVPEKNFRVTAYKAVQEKSSSPPPRKTSESRDKLGNKGDFSSGKSSFSITREAQVNVRMDSFDEDLARPSGLLAQERKLCRDLVHSNKKEQEFRSIFQHIQSAQSQRSPSELFAQHIVTIVHHVKEHHFGSSGMTLHERFTKYLKRGNEQEAAKTKKSPEIHRRIDISPSTFRKHGLTHEELKSPREPGYKAEGKYKDDPVDLRLDIERRKKHKERDLKRGKSRESVDSRDSSHSRERSTEKTEKTHKGSKKQKKHRRARDRSRSSSSSSQSSHSYKAEEYPEEAEDREESTTGFDKSRLGTKDFVGPNERGGRARGTFQFRARGRGWGRGNYSGNNNNNSNNDFQKRSREEEWDPEYTPKSKKYYLHDDREGEGSDKWMSRGRGRGAFPRGRGRFMFRKSSTSPKWAHDKFSGEEGEIEDDESGTENREEKDSLQPSAE

target: TAP-Kv4.2 (human) (UniProt Q9NZV8); test: affinity purification with mass spectrometry; TAP-Kv4.2 expressed by lentivirus in rat hippocampal neurons, harvested at DIV14; strong lysis buffer (1% Triton X-100, 0.5% deoxycholate in PBS, pH 7.4); streptavidin resin, then calmodulin resin; gel cut into high and low molecular weight fragments; no MS of the control sample

binding | Binder
binds | B1
binds | B2
binds | B3
